Laboratory results as given in patent US20250011322A1, “MEDICAL COMPOUND FOR THE INHIBITION OF ALDEHYDE DEHYDROGENASE SUBTYPE 1A” (Theranib Inc., priority 2023, published 2025).
Some of these results come from one statement about several compounds together.

Biological target: T1, ALDH1A3 (Homo sapiens, UniProt P47895)
T1 construct: expressed in transfected cells; host or cells: MDA-MB-231
T1 sequence (P47895 1-512): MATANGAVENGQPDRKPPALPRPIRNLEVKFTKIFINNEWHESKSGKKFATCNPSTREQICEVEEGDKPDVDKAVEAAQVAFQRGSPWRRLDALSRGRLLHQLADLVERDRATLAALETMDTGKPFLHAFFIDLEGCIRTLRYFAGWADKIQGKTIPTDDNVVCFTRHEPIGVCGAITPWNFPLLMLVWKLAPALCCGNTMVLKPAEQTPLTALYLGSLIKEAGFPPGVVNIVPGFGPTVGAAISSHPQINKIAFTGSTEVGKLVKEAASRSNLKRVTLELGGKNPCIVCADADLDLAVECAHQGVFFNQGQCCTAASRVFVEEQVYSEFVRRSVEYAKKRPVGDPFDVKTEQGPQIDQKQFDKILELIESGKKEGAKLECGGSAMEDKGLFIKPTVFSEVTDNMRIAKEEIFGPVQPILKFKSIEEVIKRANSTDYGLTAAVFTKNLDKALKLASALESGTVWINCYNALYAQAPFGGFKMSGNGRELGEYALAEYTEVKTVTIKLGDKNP
Experiment: Aldefluor test in MDA-MB-231 cells overexpressing ALDH1A3
Format: cell-based
Conditions: same experimental conditions as DEAB (100 uM)
Experimental: In vitro assays were conducted on breast cancer cell lines MDA-MB-231, MDA-MB-468, and HCC1806 cells. Specifically, the MDA-MB-231 cell line, characterized by a low expression of ALDH1A, was used as such or after being engineered to overexpress the ALDH1A1 or ALDH1A3 isoform, while the MDA-MB-468 and HCC1806 cell lines, characterized by a high expression of ALDH1A3 were used as such or after being knocked down for the ALDH1A3 isoform (FIG. 1). […] The experiments were conducted using the Aldefluor® test, specific for aldehyde dehydrogenases.

| Structure (SMILES) | Active concentration, times lower than that used for DEAB |
| --- | --- |
| CC(=O)c1ccc(-c2cc(-c3ccc(C(C)=O)cc3)c3nc(-c4ccccc4)cn3c2)cc1 [Compound 1, 1,1′-((2-phenylimidazo[1,2-a]pyridine-6,8-diyl)bis(4,1-phenylene))bis(ethan-1-one)] | over 1000 times |
| CC(=O)c1ccc(-c2cc(-c3ccc(C#N)cc3)cn3cc(-c4ccccc4)nc23)cc1 [Compound 2, 4-(8-(4-acetylphenyl)-2-phenylimidazo[1,2-a]pyridin-6-yl)benzonitrile] | over 1000 times |
